One substance from article PMC5325215 can be followed below.

The target of assay [1] is T1, 3 x FLAG tagged full-length FILIP (rat L-FILIP) (rat) (UniProt Q8K4T4).
T1 sequence: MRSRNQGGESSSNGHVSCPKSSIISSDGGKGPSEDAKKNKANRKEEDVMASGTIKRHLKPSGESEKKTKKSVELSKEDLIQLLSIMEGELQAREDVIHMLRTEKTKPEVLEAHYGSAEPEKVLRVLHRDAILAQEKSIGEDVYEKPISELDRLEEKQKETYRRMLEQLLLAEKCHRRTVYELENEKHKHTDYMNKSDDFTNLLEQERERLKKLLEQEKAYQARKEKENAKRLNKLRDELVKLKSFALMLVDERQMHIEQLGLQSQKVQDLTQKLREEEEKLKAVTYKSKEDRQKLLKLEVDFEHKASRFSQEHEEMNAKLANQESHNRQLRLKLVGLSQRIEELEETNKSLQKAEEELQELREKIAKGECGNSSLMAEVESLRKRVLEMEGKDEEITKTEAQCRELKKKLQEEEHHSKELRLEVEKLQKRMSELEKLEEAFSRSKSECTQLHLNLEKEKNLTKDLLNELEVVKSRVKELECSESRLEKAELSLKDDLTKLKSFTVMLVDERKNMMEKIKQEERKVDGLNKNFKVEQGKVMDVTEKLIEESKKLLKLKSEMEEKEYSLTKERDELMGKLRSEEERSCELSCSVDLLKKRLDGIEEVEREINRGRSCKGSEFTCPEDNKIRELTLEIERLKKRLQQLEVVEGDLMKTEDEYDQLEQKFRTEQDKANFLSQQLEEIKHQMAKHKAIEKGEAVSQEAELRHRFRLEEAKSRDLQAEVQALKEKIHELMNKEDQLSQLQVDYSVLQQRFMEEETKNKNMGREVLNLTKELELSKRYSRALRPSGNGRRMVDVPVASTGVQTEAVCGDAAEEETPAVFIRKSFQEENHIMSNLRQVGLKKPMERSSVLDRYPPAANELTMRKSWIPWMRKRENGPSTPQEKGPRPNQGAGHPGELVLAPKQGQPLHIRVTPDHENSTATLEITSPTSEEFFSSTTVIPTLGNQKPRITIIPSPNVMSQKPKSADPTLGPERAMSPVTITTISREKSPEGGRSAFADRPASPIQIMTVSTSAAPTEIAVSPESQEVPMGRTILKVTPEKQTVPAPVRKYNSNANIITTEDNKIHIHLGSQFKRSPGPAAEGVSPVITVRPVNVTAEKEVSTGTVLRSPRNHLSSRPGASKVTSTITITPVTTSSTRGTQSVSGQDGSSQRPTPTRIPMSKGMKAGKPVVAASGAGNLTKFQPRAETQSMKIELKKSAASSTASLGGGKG
As to the kind of experiment: co-IP; COS-7 cells transfected with FLAG-tagged FILIP or deletion mutants; immunoprecipitation with anti-FLAG M2 on Protein G Dynabeads, 4°C, 3 hours; blots with anti-Hsc70 or anti-NMHCIIb; in Fig 4E also with expression of Hsc70 or Hsc70 K71M.

The target of assay [2] is T2, FILIP d934-1111 (3 x FLAG tagged) (rat) (UniProt Q8K4T4).
T2 sequence: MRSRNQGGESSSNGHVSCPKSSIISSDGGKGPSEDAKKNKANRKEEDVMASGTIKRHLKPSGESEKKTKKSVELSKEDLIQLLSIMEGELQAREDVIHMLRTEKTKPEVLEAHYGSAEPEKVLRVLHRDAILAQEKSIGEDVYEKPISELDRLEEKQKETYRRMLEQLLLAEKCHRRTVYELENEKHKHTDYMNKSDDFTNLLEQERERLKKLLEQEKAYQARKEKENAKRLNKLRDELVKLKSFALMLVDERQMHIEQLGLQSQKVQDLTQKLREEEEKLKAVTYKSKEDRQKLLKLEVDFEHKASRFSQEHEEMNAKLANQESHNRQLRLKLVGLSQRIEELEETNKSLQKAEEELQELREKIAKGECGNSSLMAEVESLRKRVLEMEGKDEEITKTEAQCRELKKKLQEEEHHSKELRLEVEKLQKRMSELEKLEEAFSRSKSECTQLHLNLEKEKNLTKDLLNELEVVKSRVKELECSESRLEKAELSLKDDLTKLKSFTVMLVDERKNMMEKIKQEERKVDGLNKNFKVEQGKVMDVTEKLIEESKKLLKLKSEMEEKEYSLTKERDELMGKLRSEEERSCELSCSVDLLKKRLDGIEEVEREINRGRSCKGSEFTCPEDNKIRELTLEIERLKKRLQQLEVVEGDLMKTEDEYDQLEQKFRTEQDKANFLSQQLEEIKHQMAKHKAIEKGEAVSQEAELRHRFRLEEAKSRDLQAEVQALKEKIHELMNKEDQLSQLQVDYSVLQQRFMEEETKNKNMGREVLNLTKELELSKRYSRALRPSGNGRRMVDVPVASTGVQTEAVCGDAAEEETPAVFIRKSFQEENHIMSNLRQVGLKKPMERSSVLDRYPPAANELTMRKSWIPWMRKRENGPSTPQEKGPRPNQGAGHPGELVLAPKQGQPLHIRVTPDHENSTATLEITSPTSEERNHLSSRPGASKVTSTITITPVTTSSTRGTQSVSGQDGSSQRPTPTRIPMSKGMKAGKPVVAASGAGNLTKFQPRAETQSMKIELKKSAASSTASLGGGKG
The description is as above.

No constants are given. Whether binding was seen depends on the method and setting. In cells and extracts the contact can be indirect. Binding calls can cover weak binding; strength is not graded here. Tags and fused reporters may be left off the sequences shown.

Consider “non-muscle myosin IIb (endogenous, COS-7 cells)”, for which the binding result in assay [1] and in assay [2] was “binds” throughout.
